# Reference: paper PMC6745524, “Diverse roles of TssA‐like proteins in the assembly of bacterial type VI secretion systems” (The EMBO Journal, 2019)
# No constants are given. Whether binding was seen depends on the method and setting. A result given as binding can be weak or reduced; the word gives no strength. Sequences can lack the tags named with a protein.
# Biological target: T1, TssAVC, bacterial two-hybrid fusion (Vibrio cholerae) (UniProt Q9KN46)
# T1 sequence: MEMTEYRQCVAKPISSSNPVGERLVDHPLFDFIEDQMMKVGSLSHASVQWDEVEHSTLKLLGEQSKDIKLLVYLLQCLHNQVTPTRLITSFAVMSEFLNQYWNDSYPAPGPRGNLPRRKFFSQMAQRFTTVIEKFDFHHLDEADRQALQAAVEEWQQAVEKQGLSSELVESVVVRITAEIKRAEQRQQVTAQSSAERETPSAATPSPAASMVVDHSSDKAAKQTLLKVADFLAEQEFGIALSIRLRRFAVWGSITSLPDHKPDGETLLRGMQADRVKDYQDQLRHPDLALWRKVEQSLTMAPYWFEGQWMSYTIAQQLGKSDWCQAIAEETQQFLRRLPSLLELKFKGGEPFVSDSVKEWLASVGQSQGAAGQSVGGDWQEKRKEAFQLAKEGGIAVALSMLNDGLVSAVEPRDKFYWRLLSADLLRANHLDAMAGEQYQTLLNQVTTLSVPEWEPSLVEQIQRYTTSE
# Assay: two-hybrid; bacterial two-hybrid system (Euromedex); cells incubated at 30°C for 24-48 h
row,Substance,binding
1,"TagAVC, bacterial two-hybrid fusion (Vibrio cholerae)",binds
2,"ClpV, bacterial two-hybrid fusion (Vibrio cholerae)",binds
3,"VipB, bacterial two-hybrid fusion (Vibrio cholerae)",binds
